Values quoted from earlier work in patent US12708606B2 (UNIVERSITY OF GEORGIA RESEARCH FOUNDATION, INC., priority 2018, dated 2026).
At least one compound was matched to its structure with a doubt left.

Settings: in vitro studies; cited from earlier work

[Li] [lithium]
local lithium concentration needed for effective anti-collagenolytic and anti-gelatinolytic activities: 5 to 10 mM
